From US5723103A, “Substituted benzamides and radioligand analogs and methods of use” (Vanderbilt University, priority 1994, dated 1998)

Molecular target: T1, 5-HT-3 receptor (Rattus norvegicus, UniProt P35563)
T1 sequence (P35563 24-483): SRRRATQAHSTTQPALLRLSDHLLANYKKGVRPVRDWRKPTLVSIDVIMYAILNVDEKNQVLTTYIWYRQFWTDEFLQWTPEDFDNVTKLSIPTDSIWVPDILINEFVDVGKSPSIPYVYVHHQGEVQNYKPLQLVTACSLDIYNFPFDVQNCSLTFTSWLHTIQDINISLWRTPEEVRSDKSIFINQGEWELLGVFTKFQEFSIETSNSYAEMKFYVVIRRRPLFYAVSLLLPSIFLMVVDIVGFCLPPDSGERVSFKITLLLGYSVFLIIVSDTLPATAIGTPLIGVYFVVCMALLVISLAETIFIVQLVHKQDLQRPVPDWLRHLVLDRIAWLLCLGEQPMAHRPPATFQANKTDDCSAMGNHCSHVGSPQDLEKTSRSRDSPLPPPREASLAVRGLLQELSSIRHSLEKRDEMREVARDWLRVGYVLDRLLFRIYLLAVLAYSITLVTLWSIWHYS

- Ki: 39 nM
SMILES: CN1CCN2c3ccccc3Cc3ccccc3C2C1 (stereo not shown) [mianserin]
